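The test systems are human melanoma cell lines, treated with two drugs together for 72 h and then stained and imaged. Values are the number of DAPI-stained nuclei as a percentage of the DMSO control: 100 is no effect, lower means fewer cells. Concentrations were fixed for each drug; these are the lower of two levels, a fifth of the higher. No replicate spread is given; individual values may be noisy.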
An unselected part of the screen is shown.
An entry leaves out what has no value listed here.

Compounds and concentrations:
XAV939: Oc1nc(-c2ccc(C(F)(F)F)cc2)nc2c1CSCC2 at 2000 nM
AZD7762: NC(=O)Nc1cc(-c2cccc(F)c2)sc1C(=O)N[C@H]1CCCNC1 at 20 nM
JZL184: O=C(Oc1ccc([N+](=O)[O-])cc1)N1CCC(C(O)(c2ccc3c(c2)OCO3)c2ccc3c(c2)OCO3)CC1 at 1000 nM
nilutamide: CC1(C)NC(=O)N(c2ccc([N+](=O)[O-])c(C(F)(F)F)c2)C1=O at 1000 nM
LFM-A13: C/C(O)=C(\C#N)C(=O)Nc1cc(Br)ccc1Br at 2000 nM
SNS-032: CC(C)(C)c1cnc(CSc2cnc(NC(=O)C3CCNCC3)s2)o1 at 10 nM
embelin: CCCCCCCCCCCC1=C(O)C(=O)C=C(O)C1=O at 1200 nM
gemcitabine: Nc1ccn([C@@H]2O[C@H](CO)[C@@H](O)C2(F)F)c(=O)n1 at 0.4 nM
L-779450: Oc1cc(-c2nc(-c3ccccc3)[nH]c2-c2ccncc2)ccc1Cl at 200 nM
A-769662: N#Cc1c(O)c2c(-c3ccc(-c4ccccc4O)cc3)csc2[nH]c1=O at 2000 nM
OSU-03012: NCC(=O)Nc1ccc(-n2nc(C(F)(F)F)cc2-c2ccc3c(ccc4ccccc43)c2)cc1 at 1000 nM
STA-4783: CN(NC(=O)CC(=O)NN(C)C(=S)c1ccccc1)C(=S)c1ccccc1 at 6 nM
tipifarnib: Cn1cncc1[C@@](N)(c1ccc(Cl)cc1)c1ccc2c(c1)c(-c1cccc(Cl)c1)cc(=O)n2C at 10 nM
bortezomib: CC(C)C[C@H](NC(=O)[C@H](Cc1ccccc1)NC(=O)c1cnccn1)B(O)O at 1 nM

* A-769662 + OSU-03012 : MEL-HO: 105; LB2518-MEL: 101; COLO 792: 105; A101D: 101
* A-769662 + nilutamide : MEL-HO: 92.5; LB2518-MEL: 110; COLO 792: 94.5; A101D: 93.5
* STA-4783 + XAV939 : MEL-HO: 96.0; LB2518-MEL: 91.1; COLO 792: 64.6; A101D: 67.5
* L-779450 + AZD7762 : MEL-HO: 75.7; LB2518-MEL: 115; COLO 792: 93.8; A101D: 75.7
* embelin + OSU-03012 : MEL-HO: 108; LB2518-MEL: 92.8; COLO 792: 95.6; A101D: 97.5
* JZL184 + embelin : MEL-HO: 100; LB2518-MEL: 101; COLO 792: 114; A101D: 106
* gemcitabine + L-779450 : MEL-HO: 76.0; LB2518-MEL: 102; COLO 792: 90.6; A101D: 119
* nilutamide + XAV939 : MEL-HO: 98.9; LB2518-MEL: 95.2; COLO 792: 85.2; A101D: 104
* gemcitabine + JZL184 : MEL-HO: 88.9; LB2518-MEL: 84.5; COLO 792: 96.3; A101D: 100
* AZD7762 + LFM-A13 : MEL-HO: 92.8; LB2518-MEL: 132; COLO 792: 96.1; A101D: 94.9
* bortezomib + AZD7762 : MEL-HO: 97.3; LB2518-MEL: 43.2; COLO 792: 107; A101D: 34.0
* JZL184 + SNS-032 : MEL-HO: 122; LB2518-MEL: 96.4; COLO 792: 90.4; A101D: 104
* JZL184 + AZD7762 : MEL-HO: 93.6; LB2518-MEL: 136; COLO 792: 98.1; A101D: 84.9
* STA-4783 + L-779450 : MEL-HO: 127; LB2518-MEL: 78.3; COLO 792: 80.9; A101D: 97.8
* OSU-03012 + gemcitabine : MEL-HO: 92.5; LB2518-MEL: 86.9; COLO 792: 109; A101D: 86.2
* nilutamide + gemcitabine : MEL-HO: 99.6; LB2518-MEL: 87.7; COLO 792: 112; A101D: 109
* A-769662 + LFM-A13 : MEL-HO: 102; LB2518-MEL: 101; COLO 792: 102; A101D: 95.8
* STA-4783 + A-769662 : MEL-HO: 89.7; COLO 792: 78.0; A101D: 39.2
* AZD7762 + XAV939 : MEL-HO: 94.7; LB2518-MEL: 128; COLO 792: 76.1; A101D: 103
* STA-4783 + JZL184 : MEL-HO: 97.0; LB2518-MEL: 90.7; COLO 792: 78.1; A101D: 77.5
* OSU-03012 + XAV939 : MEL-HO: 100; LB2518-MEL: 102; COLO 792: 90.7
* JZL184 + OSU-03012 : MEL-HO: 90.3; LB2518-MEL: 114; COLO 792: 102; A101D: 100
* bortezomib + embelin : MEL-HO: 106; LB2518-MEL: 95.3; COLO 792: 98.5; A101D: 136
* tipifarnib + gemcitabine : MEL-HO: 79.0; LB2518-MEL: 86.9; COLO 792: 95.0; A101D: 104
* tipifarnib + A-769662 : MEL-HO: 93.4; LB2518-MEL: 76.0; COLO 792: 97.9; A101D: 91.9
* XAV939 + SNS-032 : MEL-HO: 101; LB2518-MEL: 73.8; COLO 792: 71.5; A101D: 90.2
* SNS-032 + gemcitabine : MEL-HO: 71.9; LB2518-MEL: 80.4; COLO 792: 106; A101D: 96.4
* bortezomib + L-779450 : MEL-HO: 95.9; LB2518-MEL: 44.6; COLO 792: 107; A101D: 44.2
* LFM-A13 + STA-4783 : MEL-HO: 91.9; LB2518-MEL: 68.9; COLO 792: 60.9; A101D: 69.0
* bortezomib + XAV939 : MEL-HO: 99.8; LB2518-MEL: 93.4; COLO 792: 92.8; A101D: 66.3
* embelin + SNS-032 : MEL-HO: 81.8; LB2518-MEL: 80.7; COLO 792: 101; A101D: 102
* bortezomib + A-769662 : MEL-HO: 85.7; LB2518-MEL: 46.6; COLO 792: 87.2; A101D: 28.4
* SNS-032 + A-769662 : MEL-HO: 106; LB2518-MEL: 87.0; COLO 792: 98.8; A101D: 100
* tipifarnib + XAV939 : MEL-HO: 74.9; LB2518-MEL: 83.4; COLO 792: 81.8; A101D: 91.7
* OSU-03012 + L-779450 : MEL-HO: 91.2; LB2518-MEL: 82.5; COLO 792: 96.9; A101D: 115
* L-779450 + nilutamide : MEL-HO: 84.4; LB2518-MEL: 80.0; COLO 792: 92.5; A101D: 107
* nilutamide + JZL184 : MEL-HO: 88.5; LB2518-MEL: 107; COLO 792: 121; A101D: 113
* LFM-A13 + gemcitabine : MEL-HO: 79.8; LB2518-MEL: 88.6; COLO 792: 93.9; A101D: 95.0
* LFM-A13 + OSU-03012 : MEL-HO: 76.6; LB2518-MEL: 122; COLO 792: 70.8; A101D: 107

Some entries from above, unchanged:

* L-779450 + nilutamide | MEL-HO: 84.4; LB2518-MEL: 80.0; COLO 792: 92.5; A101D: 107
* AZD7762 + XAV939 | MEL-HO: 94.7; LB2518-MEL: 128; COLO 792: 76.1; A101D: 103

From a melanoma drug combination screen (doi:10.1371/journal.pone.0140310); values rounded.